Test results published in patent US20180057558 (published 2018).

Experiments:
[1] = general procedure: hybrid (solid and solution phase) peptide synthesis; CTC resin (fragments); Wang resin; DIC/HOBt/collidine; DIC/HOBt; OSu active esters; conditions: for final HPLC purity / final purity (method not given) / crude purity (method not given): HPLC
[2] = general procedure: hybrid (solid and solution phase) peptide synthesis; CTC resin; DIC/HOBt/collidine; DIC/HOBt; OSu active esters; conditions: whole synthesis
[3] = whole synthesis, scale of the general procedure 200 g CTC resin (0.8 mmol/g)

Substance: H-Gln(Trt)-Ala-Ala-Lys(Pal-Glu-OtBu)-Glu(OtBu)-Phe-Ile-Ala-Trp-Leu-Val-Arg(Pbf)-Gly-Arg(Pbf)-Gly-OH
- crude yield ([1]; whole synthesis, scale 1 mmol): 100%
- crude mass ([2]; scale 1 mmol): 3.12 g

Substance: His-Ala-Glu-Gly-Thr-Phe-Thr-Ser-Asp-Val-Ser-Ser-Tyr-Leu-Glu-Gly-Gln-Ala-Ala-Lys(Pal-Glu)-Glu-Phe-Ile-Ala-Trp-Leu-Val-Arg-Gly-Arg-Gly-OH
- step yield ([1]; coupling step): 44%
- final HPLC purity ([1]; purification step): >98.0%
- final purity (method not given) ([1]; purification step, run 1): more than 97%
- final purity (method not given) ([1]; purification step, run 2): more than 98.5%
- step yield ([1]; purification step, run 1): 40%
- step yield ([1]; purification step, run 2): 45% yield
- final purity (method not given) [1, 3]: 99.4%
- crude purity (method not given) ([1]; whole synthesis, scale of the general procedure 200 g CTC resin (0.8 mmol/g), run 1): 64.5%
- crude purity (method not given) ([1]; whole synthesis, scale of the general procedure 200 g CTC resin (0.8 mmol/g), run 2): 56.5% purity

Substance: Fmoc-Thr(tBu)-Phe-Thr(tBu)-Ser(tBu)-Asp(OtBu)-Val-Ser(tBu)-Ser(Ψ^Me,Mepro)-Tyr(tBu)-Leu-Glu(OtBu)-Gly-OH
- crude yield ([2]; scale of the general procedure 200 g CTC resin (0.8 mmol/g)): 45.2%

Substance: Boc-[His(Trt)]AE(OtBu)G-OH
- final HPLC purity [1, 3]: 94.0%
- isolated yield [1, 3]: 46.2%
- crude HPLC purity ([2]; HPLC, scale of the general procedure 200 g CTC resin (0.8 mmol/g)): 71.9%

Square brackets hold non-standard residues; d marks the D form. * marks the point of attachment. His(Trt) = N[C@@H](Cc1cn(C(c2ccccc2)(c2ccccc2)c2ccccc2)cn1)C(=O)O; Boc = CC(C)(C)OC(=O)*; OtBu = CC(C)(C)O*
